Where a SMILES comes first, the peptide text is derived from it.
test system: purified HLA class II (HLA-DR) molecules; test: HLA class II (HLA-DR) competition binding assay, purified HLA (allele not specified); parameters: species or system human; conditions: number of HLA-DR alleles of Table 7 bound

Molecule	No. alleles bound
CC[C@H](C)[C@H](NC(=O)[C@H](CS)NC(=O)[C@H](CCCNC(=N)N)NC(=O)CNC(=O)[C@@H](N)[C@@H](C)O)C(=O)N[C@@H](C)C(=O)N[C@@H](CS)C(=O)N[C@@H](Cc1c[nH]c2ccccc12)C(=O)N[C@@H](CCCNC(=N)N)C(=O)N[C@@H](CCCNC(=N)N)C(=O)N1CCC[C@H]1C(=O)N[C@@H](CCCNC(=N)N)C(=O)N[C@H](C(=O)N[C@@H](CCC(=O)O)C(=O)N[C@H](C(=O)O)[C@@H](C)O)[C@@H](C)O [compound 110] (H-TGRCIACWRRPRTET-OH)	6
CC[C@H](C)[C@H](NC(=O)[C@H](CS)NC(=O)[C@H](CC(=O)O)NC(=O)[C@H](CCCNC(=N)N)NC(=O)[C@H](Cc1ccc(O)cc1)NC(=O)[C@@H](NC(=O)[C@@H](NC(=O)[C@H](CS)NC(=O)[C@@H](N)CC(C)C)[C@@H](C)CC)C(C)C)C(=O)N[C@@H](C)C(=O)N[C@@H](Cc1ccc(O)cc1)C(=O)N[C@@H](C)C(=O)N[C@@H](C)C(=O)N[C@@H](CS)C(=O)N[C@@H](Cc1c[nH]cn1)C(=O)O [compound 118]	7
CC[C@H](C)[C@H](NC(=O)[C@H](CO)NC(=O)[C@H](Cc1c[nH]cn1)NC(=O)[C@@H](N)Cc1ccccc1)C(=O)N[C@@H](C)C(=O)NCC(=O)N[C@@H](CCC(N)=O)C(=O)N[C@@H](Cc1ccc(O)cc1)C(=O)N[C@@H](CCCNC(=N)N)C(=O)NCC(=O)N[C@@H](CCC(N)=O)C(=O)N[C@@H](CS)C(=O)N[C@@H](CC(N)=O)C(=O)N[C@H](C(=O)N[C@@H](CS)C(=O)O)[C@@H](C)O [compound 119] (H-FHSIAGQYRGQCNTC-OH)	6
LQAIELQLTLETIYN (Human papillomavirus type 16) [SEQ ID 92]	9

Reference: patent US8969542B2, “HPV polyepitope constructs and uses thereof” (priority 2007, dated 2015)
